Results from patent US20210300993A1 (AVALON GLOBOCARE, published 2021).
These are yes or no findings as the source states them, for the method shown. Some entries that bind do so weakly or less than the wild type. Tags and fused reporters may be left off the sequences shown.

How the values were obtained:
IFNγ [1] = target: T1, IFNγ (UniProt P01579 24-166, limits assumed); test: MicroScale Thermophoresis
T1 sequence (looked up): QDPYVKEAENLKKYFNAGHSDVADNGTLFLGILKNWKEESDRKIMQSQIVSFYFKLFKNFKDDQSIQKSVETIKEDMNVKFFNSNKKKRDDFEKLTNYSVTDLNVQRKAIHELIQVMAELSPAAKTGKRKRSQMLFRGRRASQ

IFNγ [2] = target: T1, IFNγ; test: solution-based assay (MicroScale Thermophoresis), Fc-fusion receptor against its ligand
IFNγ [3] = target: T1, IFNγ; test: MicroScale Thermophoresis (MST), fluorescently labelled receptor fusion titrated with IFNγ
Source text: FIG. 3A-3D. MST ligand binding measurements. The receptors were labeled with fluorescent dye. The ligands were purchased commercially from and dissolved in di water. (FIG. 3A) IL4Rα^QTY-Fc with IL4; (FIG. 3B) IL10Rα^QTY-Fc with IL10; (FIG. 3C) IFNγR1^QTY-Fc with IFNγ; (FIG. 3D) […].
MicroScale Thermophoresis (MST) is an optical method detecting changes in thermophoretic movement and TRIC of the protein-attached fluorophore upon ligand binding. Active labelled proteins contribute to the thermophoresis signal upon ligand binding. […] Herein ligand binding experiments were carried out with 5 nM NT647-labeled protein in 1× PBS, 10 mM DTT buffer with different concentration of arginine, against a gradient of respective ligands on a Monolith NT.115 pico instrument at 25° C. Synthesized receptors were labeled with Monolith NT™ 2nd generation protein labeling kit RED-NHS (NanoTemper Technologies) so as to obtain unique fluorescent signals. MST time traces were recorded and analyzed to obtain the highest possible signal-to-noise levels and amplitudes, >5 Fnorm units. The recorded fluorescence was plotted against the concentration of ligand, and curve fitting was performed using the Kd fit formula derived from the law of mass action. For clarity, binding graphs of each independent experiment were normalized to the fraction bound (0=unbound, 1=bound). […]

Measured: binding

B1: IFNγR1^QTY-Fc (HUMAN Interferon gamma receptor 1-Fc fusion) (Fc fusion)
chain: EMGTADLGPSSVPTPTNVTIESYNMNPIVYWEYQIMPQVPVFTVEVKNYGVKNSEWIDACINISHHYCNISDHVGDPSNSLWVRVKARVGQKESAYAKSEEFAVCRDGKIGPPKLDIRKEEKQIMIDIFHPSVFVNGDEQEVDYDPETTCYIRVYNVYVRMNGSEIQYKILTQKEDDCDEIQCQLAIPVSSLNSQYCVSAEGVLHVWGVTTEKSKEVCITIFNSSIKGSQWTPTTAAQQQYQTQSQTYTCFYIKKTETSQVAPAHHHHHHHHHHGSKLVDPRGPTIKPCPPCKCPAPNLLGGPSVFIFPPKIKDVLMISLSPIVTCVVVDVSEDDPDVQISWFVNNVEVHTAQTQTHREDYNSTLRVVSALPIQHQDWMSGKEFKCKVNNKDLPAPIERTISKPKGSVRAPQVYVLPPPEEEMTKKQVTLTCMVTDFMPEDIYVEWTNNGKTELNYKNTEPVLDSDGSYFMYSKLRVEKKNWVERNSYSCSVVHEGLHNHHTTKSFSRTPGK
modifications: labeled with NT647 RED-NHS fluorescent dye for MST
binds: all assays above
